These are yes or no findings as the source states them, for the method shown. In cells and extracts the contact can be indirect. Some entries that bind do so weakly or less than the wild type.
Tests used:
[1] = target: TSPO (as used in the GST pull-down) (UniProt P30536); assay: pull-down; GST pull-down 'in vitro' (Figure 4E); which partner carried GST is not told
[2] = target: translocator protein (TSPO), 18 kDa, mitochondrial (human (endogenous in HCCLM3 and MHCC97H)) (UniProt P30536); assay: co-IP; Co-IP of TSPO and P62 'in vivo' (Figure 4D); cells and antibodies not told in the text shown

By UniProt entry, the sequences of proteins in these tests, tags left out.
UniProt P30536: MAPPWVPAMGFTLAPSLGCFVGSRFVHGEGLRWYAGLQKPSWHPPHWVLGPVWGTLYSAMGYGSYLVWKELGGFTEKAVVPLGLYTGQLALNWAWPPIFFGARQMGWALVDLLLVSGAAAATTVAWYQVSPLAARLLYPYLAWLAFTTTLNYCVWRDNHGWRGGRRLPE

Row | binding [1] | binding [2] | Substance
1 | binds | – | P62 (as used in the GST pull-down) (from UniProt Q13501 1-440)
2 | – | binds | P62 (from UniProt Q13501 1-440)

— article PMC10214260
